Laboratory results reported in publication PMC12550800.
These are yes or no findings as the source states them, for the method shown. In cells and extracts the contact can be indirect. Some binding calls cover weakened binding; strength is not graded here.

Amino acid sequences for entries named in this document (tags omitted).
UniProt P05556: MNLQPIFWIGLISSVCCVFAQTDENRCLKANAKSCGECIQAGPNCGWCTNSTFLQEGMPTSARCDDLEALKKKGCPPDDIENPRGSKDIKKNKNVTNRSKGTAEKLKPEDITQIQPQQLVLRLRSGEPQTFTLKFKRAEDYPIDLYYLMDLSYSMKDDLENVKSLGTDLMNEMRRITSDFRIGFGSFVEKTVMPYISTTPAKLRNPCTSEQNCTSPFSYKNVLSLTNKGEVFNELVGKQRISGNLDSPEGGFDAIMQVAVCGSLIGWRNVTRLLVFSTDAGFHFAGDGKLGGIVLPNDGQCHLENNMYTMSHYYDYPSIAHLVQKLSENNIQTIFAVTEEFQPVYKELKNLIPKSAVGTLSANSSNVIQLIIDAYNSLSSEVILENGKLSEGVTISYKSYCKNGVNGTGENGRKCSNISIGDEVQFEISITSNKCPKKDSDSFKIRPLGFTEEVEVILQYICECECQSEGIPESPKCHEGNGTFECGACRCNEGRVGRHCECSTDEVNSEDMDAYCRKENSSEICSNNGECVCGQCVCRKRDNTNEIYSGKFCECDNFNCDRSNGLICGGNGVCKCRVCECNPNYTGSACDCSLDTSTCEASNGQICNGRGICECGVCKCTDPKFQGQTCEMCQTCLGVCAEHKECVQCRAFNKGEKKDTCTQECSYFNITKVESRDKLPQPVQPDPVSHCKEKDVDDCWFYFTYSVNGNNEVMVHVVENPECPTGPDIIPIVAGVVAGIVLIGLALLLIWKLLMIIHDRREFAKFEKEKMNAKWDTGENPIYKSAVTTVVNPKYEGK
UniProt Q99677: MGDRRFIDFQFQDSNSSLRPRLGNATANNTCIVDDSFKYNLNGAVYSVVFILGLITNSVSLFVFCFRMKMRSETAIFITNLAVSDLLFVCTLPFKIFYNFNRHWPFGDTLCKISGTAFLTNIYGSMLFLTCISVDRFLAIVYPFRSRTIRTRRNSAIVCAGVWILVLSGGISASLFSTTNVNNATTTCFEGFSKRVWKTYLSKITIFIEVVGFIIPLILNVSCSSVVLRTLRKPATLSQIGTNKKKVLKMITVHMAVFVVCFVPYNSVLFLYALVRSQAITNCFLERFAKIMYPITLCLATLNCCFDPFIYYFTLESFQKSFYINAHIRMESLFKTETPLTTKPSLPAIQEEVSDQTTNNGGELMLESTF

Columns and labels:
[1] = biological target: integrin β1 (human (endogenous in MDA-MB-231 and BT549)) (UniProt P05556); assay: co-IP; endogenous IP from BT549 lysates (Con, ST6GAL1-KO, ST6GAL1-Res cells) in NETN buffer (20 mM Tris-HCl pH 8.0, 100 mM NaCl, 1 mM EDTA, 0.5% Nonidet P-40), anti-integrin β1 antibody with protein-A/G PLUS beads, 4 °C; blotted for LPAR4, EGFR, integrin β1
[2] = biological target: integrin β1 (human (endogenous in MDA-MB-231 and BT549)) (UniProt P05556); assay: co-IP; endogenous IP from MDA-MB-231 lysates (Con, ST6GAL1-KO, ST6GAL1-Res cells) in NETN buffer (20 mM Tris-HCl pH 8.0, 100 mM NaCl, 1 mM EDTA, 0.5% Nonidet P-40), anti-integrin β1 antibody with protein-A/G PLUS beads, 4 °C; blotted for LPAR4, EGFR, integrin β1

binding [1]: binds
binding [2]: binds
Substance: LPAR4 (from UniProt Q99677 1-370) (receptor)
